Results reported in PubChem BioAssay AID1794845 (National Center for Advancing Translational Sciences (NCATS), 2023).
Out of some 6,900 compounds screened, fewer than 10 were called active. The call rests on the fitted dose curve; in most records, active means well fitted curve in the direction sought with a large enough effect; inconclusive means small, poorly fitted or top-dose-only effect, or another doubt; inactive means no such curve, though single readings can be large or run the other way. This is one part of the list.

By UniProt entry, the sequences of proteins in these tests, tags left out. Where a name states a change or a piece, a line headed by the entry shows the natural chain unless it says otherwise.
UniProt C7C422: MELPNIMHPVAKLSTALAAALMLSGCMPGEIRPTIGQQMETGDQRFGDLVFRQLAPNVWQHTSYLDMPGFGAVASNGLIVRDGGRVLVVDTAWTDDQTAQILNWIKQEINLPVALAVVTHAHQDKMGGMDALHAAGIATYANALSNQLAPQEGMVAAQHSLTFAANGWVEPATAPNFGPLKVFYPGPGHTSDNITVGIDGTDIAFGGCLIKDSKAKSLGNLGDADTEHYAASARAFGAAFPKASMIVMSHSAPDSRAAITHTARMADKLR

These compounds were tested against Metallo-beta-lactamase type 2 (Klebsiella pneumoniae) (UniProt C7C422) (assay: qHTS to identify inhibitors of the New Delhi Metallo-beta-lactamase (NDM): primary screen against the NCATS Gemini Collection). Conditions: NDM-1 enzyme, meropenem hydrolysis, absorbance 300 nm; at 38.4 µM (top of the series) unless noted.
How it was run: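 NDM-1 at 2 nM final in 50 mM HEPES pH 7.0, 1 uM ZnSO4, 0.01% Tween20, preincubated >30 min with compound. Meropenem 50 uM final added; absorbance at 300 nm after 30 min.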
Further: % of control where 0% means no effect.

Activity % (negative = inhibition), inactive:
COc1ccccc1N1CCN(C(=O)Cn2c(C)cc3nc4n(c(=O)c32)CCCCC4)CC1 0.44%
CCCn1nc2c(c1C)C(c1ccc(OCC(N)=O)c(Cl)c1)CC(=O)N2 (centres undefined) -8.49%
Cc1cnc(C(=O)N[C@@H]2CCC[C@@H]2C(=O)N2CCC(N3CCCCC3)CC2)cn1 40.6%
Cc1cc(F)ccc1NC(=O)CCC1CCCN(C(=O)c2ccc(Cl)s2)C1 (centres undefined) -1.32%
O=C(NCC1CC1)c1nc2c(o1)CCN(CCCc1ccccc1)CC2 33.5% [at 57.5 µM]
O=c1cc(-c2cccnc2)oc2c(NCCc3ccccn3)nccc12 -2.65% [at 57.5 µM]
CC(C)n1cc(C(=O)N2CCCC(c3nnc(Cn4ccnc4)n3C)C2)cn1 (centres undefined) 24.9%
CCN(CC)CC(=O)N1CCC(Oc2ccccc2C)(C(=O)O)CC1 1.04%
CCOCC(=O)N1C[C@@H](CO)[C@H](c2ccccn2)C1 7.16%
Cc1cc(C)n(Cc2ccc(C(=O)N3CCC(N4C[C@H](O)C[C@H]4C(=O)NC4CCCCC4)CC3)o2)n1 -9.21%
O=C(C1CCCN1[S+](=O)([O-])c1cccc(C(F)(F)F)c1)N1CCC(c2nc3ccncc3[nH]2)C1 (centres undefined) 0.378%
O=C(CC1CCCN(c2cn[nH]c(=O)c2)C1)N1CCCCCC1 (centres undefined) -0.309%
CN(C)C(=O)CCN1CCOC(CC(c2ccccc2)c2ccccc2)C1 (centres undefined) 0.721%
Cc1nc(CC(=O)N2CCCC(c3ccc(C(=O)O)cc3)C2)cs1 (centres undefined) -1.53%
COCCNC(=O)C[C@@H]1C[C@@H](C(C)C)[C@H](CNC(=O)C2CC2)C=C1C 3.03% [at 57.5 µM]
Cc1cc(CN2CC(Oc3ccc(F)c(F)c3)C2)no1 2.13% [at 57.5 µM]
O=C(CC[C@@H]1CNC(=O)[C@@H]2C[C@H](NC(=O)Nc3ccc(F)cc3F)CN12)NC1CC1 -5.42% [at 57.5 µM]
C#CCNC(=O)C1CCc2nnc(-c3ccc(Cl)cc3Cl)n21 (centres undefined) 1.05%
c1ccc(O[C@H]2COCCN(Cc3cccc4c3OCO4)C2)cc1 -2.43% [at 57.5 µM]
COc1nccnc1NC1CCN(C(=O)c2ccco2)CC1 4.75%
CN(C)C(=O)N1CCCn2nc(CNC(=O)Nc3cccc(C#N)c3)cc2C1 57.3%
CC(C)=CCO[C@H]1CCOC[C@H]1NC(=O)CCc1ccc(=O)[nH]n1 3.39%
Cc1ccc(C(=O)N2CCC(N3C(=O)C4(CCCC4)C3c3scnc3C)CC2)cn1 (centres undefined) 8.69%
O=C1NC2(CN([S+](=O)([O-])c3ccccc3)C2)Oc2ccccc21 0.0334% [at 57.5 µM]
COc1ccc(Cl)cc1NC(=O)CCC1CCCN(C(=O)c2ccnn2C)C1 (centres undefined) 51.1%
CCn1ncc(N2CCC(NC(=O)c3ccccc3)CC2)cc1=O -3.91%
O=c1n(CCN2CCCC(N[S+](=O)([O-])c3ccccc3)C2)nc2n1CCCC2 (centres undefined) 39.9%
COc1ccccc1C(=O)N1CCC2(C1)NC(=O)c1ccccc1CO2 (centres undefined) 2.38%
COCCN1C(=O)c2ccccc2C(C(=O)Nc2ccc3[nH]ccc3c2)C12CCCC2 (centres undefined) -0.588%
O=C1CCN(C(=O)c2ccoc2)CCCC(c2nc(-c3cccnc3)no2)CCN1 (centres undefined) -4.47%
Cn1cc(C(=O)N2CCCC(c3nnnn3C)C2)cn1 (centres undefined) 61.7%
O=S1(=O)CC(COCc2ccccc2)CN1c1ccccc1 (centres undefined) -5.05%
COCC1(CNCC2CCCC2)C[C@@H](O)[C@@H](O)C1 (some centres undefined) 0% [at 77.1 µM]
Cc1ccccc1-c1cc(O)c2c(c1)CN(C(=O)C1CCNCC1)CCO2 -4.25%
Cc1nc(C2CCN(C(=O)[C@H]3CNC[C@H](C(=O)N4CCCC4)C3)CC2)n[nH]1 -4.04%
Cc1sc2cc(C(=O)NC(C)C)[nH]c2c1CN1CCCCC1 25.4%
COc1ccc(C(=O)N2CCC(n3c(C)cnc3-c3ccncc3)C2)c(OC)c1 (centres undefined) 3.23%
CC1CCN(S(=O)(=O)N2CCC(C(=O)N3CCc4nc5cc[nH]n5c(=O)c4C3)CC2)CC1 3.27%
O=C(CCc1conc1-c1ccc(F)cc1)NCC1CCCO1 (centres undefined) 1.18%
Cc1ccn(CCC(=O)NCc2cccnc2Oc2ccc(F)c(F)c2)n1 2.54%
CS(=O)(=O)N1CCOc2ccc(CCC(=O)NCC3CCCO3)cc2C1 (centres undefined) 1.61%
COCc1nc(C2CC(N)C2)cc(N2CCC(Cn3cccn3)CC2)n1 (centres undefined) 0.388%
CCC1C(=O)NCCN1Cc1cn(-c2cccc(F)c2)nc1-c1ccc(C)o1 (centres undefined) 16.7%
CCN(Cc1nccn1C)C(=O)c1ccc(N2CCC(COC)C2)nc1 (centres undefined) -0.441%
COCCC1(NC(=O)C2CC2)CCN(C(=O)C2CC2)CC1 0.235%
COC(=O)[C@@H](Cc1c[nH]c2ccccc12)NC(=O)[C@@H]1CN(C(=O)c2cccnc2)CCN1C(=O)NC(C)C -0.87%
Cc1ncc(-c2nc3cc(S(=O)(=O)NC(C)C)ccc3n2C(C)C)cn1 18.6%
Cc1cc(C)n(-c2cccc(CN3CCCC(O)(CN(C)C)C3)c2)n1 (centres undefined) 21.4%
CC1(c2ccccc2)N(Cc2cccnc2)C(=O)OC12CCN(C(=O)Cc1ccc(Cl)cc1)CC2 (centres undefined) 40.6%
Clc1cc(NC2CCCCC2)n2nccc2n1 17.1% [at 57.5 µM]
O=C(c1ccccc1)N1CCCC2(CC(c3ccccn3)=NO2)C1 (centres undefined) 0.634%
Cc1cccc(N2CCN(C(=O)c3cc4n(n3)CC(c3ccc(Cl)cc3)OC4)CC2)c1 (centres undefined) -4.28%
O=C1NCCCCCCN(C(=O)c2cccnc2)[C@H]2C[C@H](c3nc(Cc4ccccc4)no3)C[C@@H]12 -0.424%
COc1cccc(C(=O)N2CCOC[C@H](Oc3ccccc3)C2)c1 -1.19% [at 57.5 µM]

Quoted from the results shown (14 entries):
Activity % (negative = inhibition), inactive:
c1ccc(O[C@H]2COCCN(Cc3cccc4c3OCO4)C2)cc1 -2.43% [at 57.5 µM]
COc1nccnc1NC1CCN(C(=O)c2ccco2)CC1 4.75%
CN(C)C(=O)N1CCCn2nc(CNC(=O)Nc3cccc(C#N)c3)cc2C1 57.3%
CC(C)=CCO[C@H]1CCOC[C@H]1NC(=O)CCc1ccc(=O)[nH]n1 3.39%
Cc1ccc(C(=O)N2CCC(N3C(=O)C4(CCCC4)C3c3scnc3C)CC2)cn1 (centres undefined) 8.69%
O=C1NC2(CN([S+](=O)([O-])c3ccccc3)C2)Oc2ccccc21 0.0334% [at 57.5 µM]
COc1ccc(Cl)cc1NC(=O)CCC1CCCN(C(=O)c2ccnn2C)C1 (centres undefined) 51.1%
CCn1ncc(N2CCC(NC(=O)c3ccccc3)CC2)cc1=O -3.91%
O=c1n(CCN2CCCC(N[S+](=O)([O-])c3ccccc3)C2)nc2n1CCCC2 (centres undefined) 39.9%
COc1ccccc1C(=O)N1CCC2(C1)NC(=O)c1ccccc1CO2 (centres undefined) 2.38%
COCCN1C(=O)c2ccccc2C(C(=O)Nc2ccc3[nH]ccc3c2)C12CCCC2 (centres undefined) -0.588%
O=C1CCN(C(=O)c2ccoc2)CCCC(c2nc(-c3cccnc3)no2)CCN1 (centres undefined) -4.47%
Cn1cc(C(=O)N2CCCC(c3nnnn3C)C2)cn1 (centres undefined) 61.7%
O=S1(=O)CC(COCc2ccccc2)CN1c1ccccc1 (centres undefined) -5.05%
